From article PMC9917560, “Design, Synthesis and Antimicrobial Evaluation of New N-(1-Hydroxy-1,3-dihydrobenzo[c][1,2]oxaborol-6-yl)(hetero)aryl-2-carboxamides as Potential Inhibitors of Mycobacterial Leucyl-tRNA Synthetase” (International Journal of Molecular Sciences, 2023) come the findings set out here.

What all share (test): Antibacterial microdilution broth (EUCAST)
What all share (assay type): cell-based
For orientation: Broth dilution looks for growth in wells or tubes with falling amounts of substance.

Test [1] relates to Staphylococcus epidermidis CCM 4418 (ATCC 12228). The conditions noted are these: S. epidermidis CCM 4418, 95% growth inhibition, 24 h, read-out: MIC (spectrophotometric detection, 530 nm).
Test [2] concerns Pseudomonas aeruginosa CCM 3955 (ATCC 27853). The conditions noted are these: P. aeruginosa CCM 3955, 24 h, read-out: MIC (visual detection).
Test [3] relates to Staphylococcus aureus subsp. aureus CCM 4223 (ATCC 29213). The conditions noted are these: S. aureus CCM 4223, 95% growth inhibition, 24 h, read-out: MIC (spectrophotometric detection, 530 nm).
Test [4] concerns Klebsiella pneumoniae CCM 4415 (ATCC 10031). Particulars: K. pneumoniae CCM 4415, 95% growth inhibition, 24 h, read-out: MIC (spectrophotometric detection, 530 nm).

≈ marks a conversion by molar mass, not a printed value.

For orientation: MIC means the smallest concentration in the dilution series that meets the test's criterion for growth inhibition.

Regarding `O=C(O)c1cn(C2CC2)c2cc(N3CCNCC3)c(F)cc2c1=O` [CIP, ciprofloxacin, reference compound], the MIC turned out to be 0.773 µM (≈ 0.256 µg/mL) in test [1], 0.773 µM (≈ 0.256 µg/mL) in test [2], 0.773 µM (≈ 0.256 µg/mL) in test [3] and 0.193 µM (≈ 0.0639 µg/mL) in test [4].
